# Assay results as given in the supplement of paper PMC12819154, “High-throughput peptide-centric local stability assay extends protein–ligand identification to membrane proteins, tissues and bacteria” (Nature Structural & Molecular Biology, 2025).
# Chains of the proteins cited; added tags and fusions are not shown. Lines headed by an entry give the natural chain unless they say otherwise; changes in a name come on top.
# UniProt P49006: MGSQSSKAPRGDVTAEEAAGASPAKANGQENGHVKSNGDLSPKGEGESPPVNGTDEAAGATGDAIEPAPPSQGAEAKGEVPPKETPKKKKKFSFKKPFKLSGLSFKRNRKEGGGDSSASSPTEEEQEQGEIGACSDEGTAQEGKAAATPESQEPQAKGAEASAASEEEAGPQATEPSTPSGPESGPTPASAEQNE
# UniProt P53618: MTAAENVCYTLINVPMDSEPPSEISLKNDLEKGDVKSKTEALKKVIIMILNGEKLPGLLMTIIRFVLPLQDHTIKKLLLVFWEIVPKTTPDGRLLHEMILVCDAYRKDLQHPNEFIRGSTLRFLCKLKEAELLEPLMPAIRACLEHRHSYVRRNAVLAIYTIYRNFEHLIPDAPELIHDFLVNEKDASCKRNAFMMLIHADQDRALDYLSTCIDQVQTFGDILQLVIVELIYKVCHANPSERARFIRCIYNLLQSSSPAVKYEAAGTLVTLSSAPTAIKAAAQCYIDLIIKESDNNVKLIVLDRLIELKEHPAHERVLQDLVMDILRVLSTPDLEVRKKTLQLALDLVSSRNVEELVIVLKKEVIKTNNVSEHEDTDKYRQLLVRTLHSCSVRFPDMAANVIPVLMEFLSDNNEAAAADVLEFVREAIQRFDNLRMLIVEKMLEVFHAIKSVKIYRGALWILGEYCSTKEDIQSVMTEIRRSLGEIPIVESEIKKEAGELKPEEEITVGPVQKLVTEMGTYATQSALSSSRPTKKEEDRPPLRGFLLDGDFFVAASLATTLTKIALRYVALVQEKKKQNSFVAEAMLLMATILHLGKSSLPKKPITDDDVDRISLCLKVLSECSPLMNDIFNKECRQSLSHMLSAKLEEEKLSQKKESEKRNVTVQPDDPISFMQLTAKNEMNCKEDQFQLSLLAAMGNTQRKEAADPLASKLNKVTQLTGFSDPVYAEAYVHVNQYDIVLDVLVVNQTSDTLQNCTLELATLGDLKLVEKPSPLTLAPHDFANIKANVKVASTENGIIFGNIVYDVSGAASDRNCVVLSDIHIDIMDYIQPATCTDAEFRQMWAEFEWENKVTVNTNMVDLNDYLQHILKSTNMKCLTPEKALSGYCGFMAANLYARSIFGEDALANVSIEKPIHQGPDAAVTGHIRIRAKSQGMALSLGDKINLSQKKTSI
# UniProt P50226: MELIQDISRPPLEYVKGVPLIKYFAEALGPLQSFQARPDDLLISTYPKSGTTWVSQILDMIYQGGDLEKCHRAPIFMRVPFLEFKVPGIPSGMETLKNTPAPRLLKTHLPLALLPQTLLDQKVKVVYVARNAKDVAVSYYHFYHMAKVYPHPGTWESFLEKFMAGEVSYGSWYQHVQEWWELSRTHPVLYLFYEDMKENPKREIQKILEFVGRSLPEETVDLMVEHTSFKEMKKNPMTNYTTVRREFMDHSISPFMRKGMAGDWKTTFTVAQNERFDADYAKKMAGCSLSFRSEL
# UniProt P51532, whole entry: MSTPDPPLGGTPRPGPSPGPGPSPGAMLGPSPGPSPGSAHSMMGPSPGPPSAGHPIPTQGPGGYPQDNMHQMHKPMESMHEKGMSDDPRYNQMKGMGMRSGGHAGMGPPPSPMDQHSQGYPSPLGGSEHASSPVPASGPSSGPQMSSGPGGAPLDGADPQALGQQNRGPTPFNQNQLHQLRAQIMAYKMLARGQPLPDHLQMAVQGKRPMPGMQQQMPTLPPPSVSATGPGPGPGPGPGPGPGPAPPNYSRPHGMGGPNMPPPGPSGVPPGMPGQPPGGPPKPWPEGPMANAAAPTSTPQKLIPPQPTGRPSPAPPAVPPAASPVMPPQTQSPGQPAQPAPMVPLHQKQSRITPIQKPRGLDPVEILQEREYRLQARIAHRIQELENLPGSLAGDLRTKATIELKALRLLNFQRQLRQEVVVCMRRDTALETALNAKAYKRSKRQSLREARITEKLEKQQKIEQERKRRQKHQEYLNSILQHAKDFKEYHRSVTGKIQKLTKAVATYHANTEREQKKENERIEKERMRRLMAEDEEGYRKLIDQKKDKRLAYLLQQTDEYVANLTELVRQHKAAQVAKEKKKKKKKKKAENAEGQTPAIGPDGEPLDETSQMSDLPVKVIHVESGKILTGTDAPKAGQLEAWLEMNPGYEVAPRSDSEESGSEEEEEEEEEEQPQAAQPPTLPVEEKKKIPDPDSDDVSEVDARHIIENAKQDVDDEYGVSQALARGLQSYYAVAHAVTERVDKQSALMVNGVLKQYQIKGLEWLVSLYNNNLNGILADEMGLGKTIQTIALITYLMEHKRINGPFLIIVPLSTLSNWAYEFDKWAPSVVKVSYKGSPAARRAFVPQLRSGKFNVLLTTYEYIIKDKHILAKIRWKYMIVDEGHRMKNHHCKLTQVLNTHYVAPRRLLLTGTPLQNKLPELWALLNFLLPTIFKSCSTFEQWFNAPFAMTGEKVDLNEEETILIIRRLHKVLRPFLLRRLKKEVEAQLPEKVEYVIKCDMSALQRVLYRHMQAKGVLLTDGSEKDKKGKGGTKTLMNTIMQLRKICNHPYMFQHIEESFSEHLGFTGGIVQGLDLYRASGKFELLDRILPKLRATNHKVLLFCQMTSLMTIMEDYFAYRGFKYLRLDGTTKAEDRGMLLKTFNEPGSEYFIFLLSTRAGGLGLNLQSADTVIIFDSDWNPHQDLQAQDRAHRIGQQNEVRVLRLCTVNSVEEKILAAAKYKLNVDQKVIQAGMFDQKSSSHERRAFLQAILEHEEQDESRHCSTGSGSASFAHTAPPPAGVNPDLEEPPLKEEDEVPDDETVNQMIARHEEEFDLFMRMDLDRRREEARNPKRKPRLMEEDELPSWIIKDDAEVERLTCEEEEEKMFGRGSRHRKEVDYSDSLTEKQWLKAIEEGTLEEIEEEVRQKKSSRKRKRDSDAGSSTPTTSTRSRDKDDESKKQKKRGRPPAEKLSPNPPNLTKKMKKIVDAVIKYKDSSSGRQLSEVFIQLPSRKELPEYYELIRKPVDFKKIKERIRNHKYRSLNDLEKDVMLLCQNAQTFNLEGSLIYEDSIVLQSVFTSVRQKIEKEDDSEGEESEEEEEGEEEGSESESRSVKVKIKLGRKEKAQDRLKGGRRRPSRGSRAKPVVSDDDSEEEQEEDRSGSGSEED
# UniProt P49902: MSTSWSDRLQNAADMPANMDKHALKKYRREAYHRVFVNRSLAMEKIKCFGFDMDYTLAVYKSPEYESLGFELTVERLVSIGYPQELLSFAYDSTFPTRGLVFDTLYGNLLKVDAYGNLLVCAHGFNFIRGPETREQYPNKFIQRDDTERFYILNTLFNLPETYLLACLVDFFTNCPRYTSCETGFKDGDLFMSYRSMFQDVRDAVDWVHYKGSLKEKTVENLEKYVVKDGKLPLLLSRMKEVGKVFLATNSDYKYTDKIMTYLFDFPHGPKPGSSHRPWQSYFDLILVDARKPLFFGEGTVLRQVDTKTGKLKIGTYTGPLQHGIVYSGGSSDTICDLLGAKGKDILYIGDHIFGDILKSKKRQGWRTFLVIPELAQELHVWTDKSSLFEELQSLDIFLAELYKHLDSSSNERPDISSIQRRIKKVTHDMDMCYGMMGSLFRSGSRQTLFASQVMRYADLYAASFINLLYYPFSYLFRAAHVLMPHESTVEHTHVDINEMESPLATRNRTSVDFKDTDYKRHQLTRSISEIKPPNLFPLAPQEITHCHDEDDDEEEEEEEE
# UniProt P49247: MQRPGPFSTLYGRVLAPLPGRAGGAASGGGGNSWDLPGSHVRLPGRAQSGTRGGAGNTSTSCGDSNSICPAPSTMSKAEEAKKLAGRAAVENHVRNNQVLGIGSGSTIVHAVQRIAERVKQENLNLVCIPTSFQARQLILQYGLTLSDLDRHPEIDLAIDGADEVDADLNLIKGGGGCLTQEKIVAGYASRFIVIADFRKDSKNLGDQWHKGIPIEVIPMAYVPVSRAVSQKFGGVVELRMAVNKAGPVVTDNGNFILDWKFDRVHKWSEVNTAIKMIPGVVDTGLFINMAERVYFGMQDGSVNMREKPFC
# UniProt P52746: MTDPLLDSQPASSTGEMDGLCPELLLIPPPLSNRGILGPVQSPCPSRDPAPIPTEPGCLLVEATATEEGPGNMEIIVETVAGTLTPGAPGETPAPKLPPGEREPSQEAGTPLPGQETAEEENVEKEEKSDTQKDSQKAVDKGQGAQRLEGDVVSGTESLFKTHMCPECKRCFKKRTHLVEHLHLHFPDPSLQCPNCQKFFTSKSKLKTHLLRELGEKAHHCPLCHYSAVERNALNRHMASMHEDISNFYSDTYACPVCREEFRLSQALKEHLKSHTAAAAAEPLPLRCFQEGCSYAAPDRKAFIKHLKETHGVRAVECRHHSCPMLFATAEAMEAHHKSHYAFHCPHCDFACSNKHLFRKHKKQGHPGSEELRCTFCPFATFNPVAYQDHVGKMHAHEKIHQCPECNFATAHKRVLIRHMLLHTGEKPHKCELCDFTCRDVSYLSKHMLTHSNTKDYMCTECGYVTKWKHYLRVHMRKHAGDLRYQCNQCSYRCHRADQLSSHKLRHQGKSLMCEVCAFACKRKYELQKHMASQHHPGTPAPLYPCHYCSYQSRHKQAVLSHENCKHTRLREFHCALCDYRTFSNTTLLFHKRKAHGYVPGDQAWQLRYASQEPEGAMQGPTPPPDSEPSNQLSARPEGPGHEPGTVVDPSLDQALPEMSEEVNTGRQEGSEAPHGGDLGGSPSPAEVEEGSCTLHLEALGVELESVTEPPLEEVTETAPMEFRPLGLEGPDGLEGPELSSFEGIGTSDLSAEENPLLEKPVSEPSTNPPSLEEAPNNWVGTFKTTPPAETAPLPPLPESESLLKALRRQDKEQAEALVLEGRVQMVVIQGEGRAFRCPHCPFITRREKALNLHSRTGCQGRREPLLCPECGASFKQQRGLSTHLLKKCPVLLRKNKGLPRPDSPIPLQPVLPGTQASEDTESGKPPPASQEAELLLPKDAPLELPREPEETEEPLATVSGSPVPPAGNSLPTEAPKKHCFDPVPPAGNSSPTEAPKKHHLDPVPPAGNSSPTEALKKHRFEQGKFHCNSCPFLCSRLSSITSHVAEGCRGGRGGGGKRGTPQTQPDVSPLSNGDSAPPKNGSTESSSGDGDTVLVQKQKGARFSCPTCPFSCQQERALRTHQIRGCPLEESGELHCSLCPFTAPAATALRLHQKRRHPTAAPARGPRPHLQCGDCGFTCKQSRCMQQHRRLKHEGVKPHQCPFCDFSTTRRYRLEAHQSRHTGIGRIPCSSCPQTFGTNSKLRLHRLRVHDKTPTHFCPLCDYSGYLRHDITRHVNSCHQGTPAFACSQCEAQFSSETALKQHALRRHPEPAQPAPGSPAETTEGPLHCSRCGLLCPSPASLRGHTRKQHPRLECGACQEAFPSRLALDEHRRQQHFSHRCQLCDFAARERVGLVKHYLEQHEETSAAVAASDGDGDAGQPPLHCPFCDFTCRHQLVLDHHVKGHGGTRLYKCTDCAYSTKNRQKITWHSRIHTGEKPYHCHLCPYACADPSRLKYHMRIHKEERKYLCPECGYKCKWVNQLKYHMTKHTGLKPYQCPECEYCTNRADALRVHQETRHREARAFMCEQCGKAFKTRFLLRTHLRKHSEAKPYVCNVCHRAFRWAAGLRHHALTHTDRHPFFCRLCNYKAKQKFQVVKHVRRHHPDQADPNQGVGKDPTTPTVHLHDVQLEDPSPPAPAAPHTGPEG
# UniProt P46109: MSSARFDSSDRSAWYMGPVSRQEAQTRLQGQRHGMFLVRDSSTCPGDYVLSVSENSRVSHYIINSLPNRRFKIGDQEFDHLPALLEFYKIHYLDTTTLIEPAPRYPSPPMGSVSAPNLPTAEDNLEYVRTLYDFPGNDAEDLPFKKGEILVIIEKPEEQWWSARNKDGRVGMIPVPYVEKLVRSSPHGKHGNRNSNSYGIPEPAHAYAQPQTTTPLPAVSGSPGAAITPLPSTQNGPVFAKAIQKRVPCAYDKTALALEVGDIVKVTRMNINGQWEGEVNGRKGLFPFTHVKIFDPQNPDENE
# UniProt P47813, whole entry: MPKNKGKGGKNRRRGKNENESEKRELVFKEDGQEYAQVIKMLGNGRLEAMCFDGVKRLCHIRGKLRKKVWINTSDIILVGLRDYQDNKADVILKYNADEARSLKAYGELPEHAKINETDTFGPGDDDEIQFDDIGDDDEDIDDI
# UniProt P48443: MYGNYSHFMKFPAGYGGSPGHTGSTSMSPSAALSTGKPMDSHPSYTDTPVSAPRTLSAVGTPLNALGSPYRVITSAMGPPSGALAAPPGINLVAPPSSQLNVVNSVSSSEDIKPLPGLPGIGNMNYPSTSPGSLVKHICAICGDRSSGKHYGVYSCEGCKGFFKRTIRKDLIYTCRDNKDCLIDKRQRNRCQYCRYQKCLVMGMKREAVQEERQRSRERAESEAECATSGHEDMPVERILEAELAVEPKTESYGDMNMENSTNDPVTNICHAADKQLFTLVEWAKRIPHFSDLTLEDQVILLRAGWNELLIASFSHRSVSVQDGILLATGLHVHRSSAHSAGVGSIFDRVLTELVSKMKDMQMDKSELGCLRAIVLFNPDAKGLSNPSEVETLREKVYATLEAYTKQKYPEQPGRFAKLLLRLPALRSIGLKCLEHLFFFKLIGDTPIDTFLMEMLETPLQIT
# The list shows a part of the results. Most entries show no effect beyond the scatter of the controls.
# Compound: Cc1nc(Nc2ncc(C(=O)Nc3c(C)cccc3Cl)s2)cc(N2CCN(CCO)CC2)n1 [dasatinib]
# Assay: log2 fold change of tryptic peptide abundance, ligand vs vehicle (limited proteolysis) (log2 ratio); higher = more trypsin-susceptible (destabilized)
# Details: ligand concentration: 5 uM; sample: K562 cleared lysate
row,Target,log2 fold change
1,"MARCKSL1 (peptide sequence: GEVPPKETPK, peptide start residue: 78) (UniProt P49006)",0.143
2,"KPNA2 (peptide sequence: QPPIDNIIR, peptide start residue: 109) (UniProt P52292)",0.0653
3,"NDUFA8 (peptide sequence: FDECVLDK, peptide start residue: 107) (UniProt P51970)",-0.397
4,"TTC3 (peptide sequence: TANKDPIK, peptide start residue: 357) (UniProt P53804)",-0.427
5,"COPB1 (peptide sequence: NDLEKGDVK, peptide start residue: 28) (UniProt P53618)",-0.376
6,"RFX5 (peptide sequence: NGLENPEGGAHKKPER, peptide start residue: 268) (UniProt P48382)",0.766
7,"UniProt P48730 (peptide sequence: VASSGLQSVVHR, peptide start residue: 404)",0.565
8,"PLK1 (peptide sequence: SAIILHLSNGSVQINFFQDHTK, peptide start residue: 519) (UniProt P53350)",0.886
9,"UniProt P50226 (peptide sequence: VPGIPSGMETLK, peptide start residue: 86)",-0.185
10,"SEC24C (peptide sequence: LFLFHTSLPIAEAPGK, peptide start residue: 639) (UniProt P53992)",-0.314
11,"SMARCA4 (peptide sequence: RLLLTGTPLQNK, peptide start residue: 906) (UniProt P51532)",-0.393
12,"UniProt P50539 (peptide sequence: KLEEAERK, peptide start residue: 118)",0.13
13,"LRBA (peptide sequence: SFGQTPSQLLIEPHPPR, peptide start residue: 2473) (UniProt P50851)",-0.972
14,"NT5C2 (peptide sequence: HLDSSSNERPDISSIQR, peptide start residue: 405) (UniProt P49902)",0.229
15,"SUCLG1 (peptide sequence: QHLYVDKNTK, peptide start residue: 48) (UniProt P53597)",-0.272
16,"PPOX (peptide sequence: APCPPKVVLVESSER, peptide start residue: 24) (UniProt P50336)",-0.424
17,"UniProt P49841 (peptide sequence: AKQTLPVIYVK, peptide start residue: 149)",-0.65
18,"TPMT (peptide sequence: HLDTFLK, peptide start residue: 52) (UniProt P51580)",0.124
19,"RPIA (peptide sequence: AGGAASGGGGNSWDLPGSHVR, peptide start residue: 22) (UniProt P49247)",0.0224

# 3 entries drawn at random from those above, as already listed:
row,Target,log2 fold change
11,"SMARCA4 (peptide sequence: RLLLTGTPLQNK, peptide start residue: 906) (UniProt P51532)",-0.393
3,"NDUFA8 (peptide sequence: FDECVLDK, peptide start residue: 107) (UniProt P51970)",-0.397
5,"COPB1 (peptide sequence: NDLEKGDVK, peptide start residue: 28) (UniProt P53618)",-0.376

# Later entries.

row,Target,log2 fold change
1,"HSD17B4 (peptide sequence: VVLVTGAGAGLGR, peptide start residue: 11) (UniProt P51659)",0.316
2,"ALDH9A1 (peptide sequence: IIREREDEIATMECINNGK, peptide start residue: 83) (UniProt P49189)",0.453
3,"RCAN1 (peptide sequence: TYDKDITFQYFK, peptide start residue: 93) (UniProt P53805)",0.107
4,"UniProt P52746 (peptide sequence: QAVLSHENCK, peptide start residue: 557)",0.577
5,"METAP2 (peptide sequence: SALEDKERDEDDEDGDGDGDGATGK, peptide start residue: 74) (UniProt P50579)",0.0999
6,"CRKL (peptide sequence: SAWYMGPVSR, peptide start residue: 12) (UniProt P46109)",0.146
7,"ARHGDIA (peptide sequence: YIQHTYR, peptide start residue: 128) (UniProt P52565)",-0.298
8,"NUBP1 (peptide sequence: KVKLPIIGVVENMSGFICPK, peptide start residue: 218) (UniProt P53384)",0.725
9,"UniProt P49959 (peptide sequence: HIDALEDKIDEEVRR, peptide start residue: 489)",-0.105
10,"MECP2 (peptide sequence: SAGKYDVYLINPQGK, peptide start residue: 116) (UniProt P51608)",0.488
11,"UniProt P47813 (peptide sequence: MLGNGRLEAMCFDGVKR, peptide start residue: 41)",-0.053
12,"UniProt P50120 (peptide sequence: KIAVRLTQTK, peptide start residue: 32)",0.619
13,"MNX1 (peptide sequence: TAFTSQQLLELEHQFK, peptide start residue: 246) (UniProt P50219)",-0.405
14,"RAB28 (peptide sequence: VAAEILGIK, peptide start residue: 173) (UniProt P51157)",-0.106
15,"SERPINB9 (peptide sequence: ADLSAMSAER, peptide start residue: 298) (UniProt P50453)",0.292
16,"RXRG (peptide sequence: HICAICGDR, peptide start residue: 133) (UniProt P48443)",0.097
17,"GNPDA1 (peptide sequence: YFTLGLPTGSTPLGCYKK, peptide start residue: 34) (UniProt P46926)",0.809
18,"CLK2 (peptide sequence: EHLAMMER, peptide start residue: 388) (UniProt P49760)",0.41
